Values from PubChem BioAssay AID1259254 (NCATS, 2017)
Aim: 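Finding genes that stop cells copying their DNA twice in one cycle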 (primary screen). Cell system: human HCT116 colorectal cancer cells. Knock-down reagent: single siRNA against human genes. Timing: 3 days. Detection: 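Imaged Hoechst DNA stain sorts each cell into a cycle phase by DNA amount; per plate, G2 fraction set to 0% for non-targeting and 100% for GMNN siRNA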. Scale: G2 robust z-score and G2 cells, % of GMNN control: higher = more G2 cells, more excess DNA replication; raw share of cells in G2: higher = larger share of cells with G2 DNA content. Rule for the call: 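Active siRNAs have a G2 robust z of 5 or more median absolute deviations over the median, which in these data means about 38% or higher of GMNN control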.
Shown is an unselected part of about 59,000 deposited reagents. Over the whole deposit, about 1,550 (2.6%) are marked active. 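G2 share is only a proxy for re-replication; each gene was hit by three separate siRNAs, and active genes were retested.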 Raw values are not corrected between plates. Unmarked entries are inactive. The numbers tell different reagents against one gene apart. The record does not give: the amount of reagent.

Gene,reagent no.,G2 robust z-score,"G2 cells, % of GMNN control",raw share of cells in G2 (%)
CAB39,1,1.55,13.9,7.69
CAB39,2,2.23,18.7,14.3
CAB39,3,-0.414,0.0519,3.65
HOXC10,1,1.09,10.7,8.92
HOXC10,2,-1.31,-6.24,3.31
HOXC10,3,0.209,4.44,5.83
MGME1,1,-0.00497,2.93,3.85
MGME1,2,-0.766,-2.42,3.06
MGME1,3,0.388,5.69,4.79
MAMLD1,1,-0.477,-0.387,5.16
MAMLD1,2,-0.284,0.968,4.35
MAMLD1,3,-0.311,0.782,3.69
MID1IP1,1,0.26,4.8,6.24
MID1IP1,2,3.68,28.9,18.3
MID1IP1,3,-1.06,-4.51,1.6
MNAT1,1,-0.779,-2.51,4.39
MNAT1,2,-0.659,-1.67,2.64
MNAT1,3,0.0862,3.57,6.89
TRPC7,1,4.72,36.2,18.4
TRPC7,2,-0.346,0.535,4.96
TRPC7,3,-0.739,-2.23,3.5
RPTOR,1,1.56,14,9.86
RPTOR,2,-0.591,-1.19,3.89
RPTOR,3,-0.679,-1.81,2.46
OPHN1,1,-0.797,-2.64,4.21
OPHN1,2,0.103,3.69,6.25
OPHN1,3,-0.128,2.07,3.91
ZNF367,1,-0.156,1.87,3.73
ZNF367,2,0.774,8.41,6.09
ZNF367,3,-0.705,-1.99,2.83

4 entries from above, ordered by “raw share of cells in G2 (%)”, ascending:
Gene,reagent no.,G2 robust z-score,"G2 cells, % of GMNN control",raw share of cells in G2 (%)
MAMLD1,3,-0.311,0.782,3.69
MAMLD1,2,-0.284,0.968,4.35
MID1IP1,1,0.26,4.8,6.24
MID1IP1,2,3.68,28.9,18.3

Additional reagents follow:
Gene,reagent no.,G2 robust z-score,"G2 cells, % of GMNN control",raw share of cells in G2 (%)
ATXN3,1,-0.263,1.12,3.9
ATXN3,2,1.05,10.3,9.68
ATXN3,3,3.97,30.9,14.3
TTC24,1,-1.09,-4.71,1.91
TTC24,2,-0.999,-4.06,1.6
TTC24,3,-0.455,-0.233,2.69
DENR,1,-0.664,-1.7,4.38
DENR,2,-0.412,0.0659,3.92
DENR,3,2.49,20.5,10.6
ELF4,1,-1.05,-4.45,3.62
ELF4,2,0.541,6.78,7.84
ELF4,3,-0.856,-3.06,2.57
SND1,1,1.25,11.7,11.5
SND1,2,0.13,3.88,5.48
SND1,3,-1.04,-4.35,2.57
NRXN2,1,0.888,9.21,8.69
NRXN2,2,-0.144,1.96,5.55
NRXN2,3,-0.27,1.07,3.57
KRT26,1,-0.529,-0.755,3.73
KRT26,2,-0.239,1.29,3.82
KRT26,3,-0.382,0.282,4.3
NT5C1B,1,0.141,3.96,5.98
NT5C1B,2,-0.665,-1.71,4.23
NT5C1B,3,-0.438,-0.114,5.62
GCA,1,0.503,6.51,5.09
GCA,2,0.637,7.45,9.27
GCA,3,0.856,8.99,6.46
GPR152,1,4.17,32.3,16.1
GPR152,2,-0.17,1.77,5.35
GPR152,3,0.269,4.86,5.76
PPIL2,1,-1.19,-5.4,2.22
PPIL2,2,0.146,3.99,7.97
PPIL2,3,-0.377,0.317,4.29
ZSWIM8,1,4.17,32.3,17.7
ZSWIM8,2,2.41,19.9,12.4
ZSWIM8,3,1.13,10.9,7.26
PCED1CP,1,-0.734,-2.19,2.41
PCED1CP,2,-0.318,0.729,3.28
PCED1CP,3,1.05,10.3,7.67
MARCHF4,1,1.82,15.8,9.93
MARCHF4,2,-0.0809,2.4,5.1
MARCHF4,3,-0.0863,2.36,6.62
NCAPG,1,1.49,13.5,10.4
NCAPG,2,-0.634,-1.49,3.94
NCAPG,3,-0.00891,2.9,3.46
ASB15,1,-1.18,-5.37,2.03
ASB15,2,0.402,5.8,4.7
ASB15,3,-0.302,0.842,3.36
POLR2J2,1,-0.163,1.82,6.83
POLR2J2,2,-0.703,-1.98,3.98
POLR2J2,3,-1.01,-4.12,2.97
NUFIP1,1,6.69 (active),50,28.9
NUFIP1,2,0.225,4.55,5.7
NUFIP1,3,-0.16,1.84,4.59
CYP3A4,1,-0.809,-2.73,3.16
CYP3A4,2,0.913,9.39,8.42
CYP3A4,3,0.197,4.35,6.51
